The target in the test is EphA2-Fc, fusion protein consisting of the extracellular domain of EphA2 linked to human IgG1 constant region (human) (UniProt P29317). In words: ELISA, biotinylated EA2 on EphA2-Fc captured by immobilized Ephrin A1-Fc.

Amino acid sequences for entries named in this document (tags omitted). Residues count along the entry.
UniProt P29317, residues 24-537: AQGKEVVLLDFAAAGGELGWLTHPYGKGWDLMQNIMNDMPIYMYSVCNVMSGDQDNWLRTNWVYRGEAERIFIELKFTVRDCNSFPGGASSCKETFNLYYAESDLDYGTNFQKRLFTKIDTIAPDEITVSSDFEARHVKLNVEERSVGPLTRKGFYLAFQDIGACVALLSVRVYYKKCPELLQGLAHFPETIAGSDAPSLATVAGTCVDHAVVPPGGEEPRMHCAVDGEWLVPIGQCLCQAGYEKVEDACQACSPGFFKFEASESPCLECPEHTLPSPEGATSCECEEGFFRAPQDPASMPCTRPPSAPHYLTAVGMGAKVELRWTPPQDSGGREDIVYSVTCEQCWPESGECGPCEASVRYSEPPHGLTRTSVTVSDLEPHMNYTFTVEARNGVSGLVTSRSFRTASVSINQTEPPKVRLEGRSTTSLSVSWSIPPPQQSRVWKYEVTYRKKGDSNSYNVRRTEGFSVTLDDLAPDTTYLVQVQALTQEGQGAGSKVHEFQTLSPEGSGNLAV

Binding data for 1 molecule are collected here from US20040091486A1.

These are yes or no findings as the source states them, for the method shown. Some entries that bind do so weakly or less than the wild type.

B1: EA2 anti-EphA2 monoclonal antibody (antibody, V domains shown)
VH: DVKLVESGGGLVKPGGSLKLSCAASGFTFSSYTMSWVRQTPEKRLEWVATISSGGTYTYYPDSVKGRFTISRDNAKNTLYLQMSSLKSEDTAMYYCTREAIFTYWGQGTLVTVSA
VL: DIKMTQSPSSMYASLGERVTITCKASQDINNYLSWFQQKPGKSPKTLIYRANRLVDGVPSRFSGSGSGQDYSLTISSLEYEDMGIYYCLKYDEFPYTFGGGTKLEIK
With B1, the binding entry is recorded as “binds”.
